Our source for the binding values is publication PMC6147952, “Acylated-acyl carrier protein stabilizes the Pseudomonas aeruginosa WaaP lipopolysaccharide heptose kinase” (Scientific Reports, 2018).

Amino acid sequences for entries named in this document (tags omitted).
UniProt O54439: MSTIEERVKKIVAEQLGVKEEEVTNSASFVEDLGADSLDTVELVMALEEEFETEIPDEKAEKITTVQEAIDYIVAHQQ

Results are given in words; binding and its absence hold for the method and conditions named. Binding seen in cells or lysates may run through a third protein. Here binding means that the protein was enriched with, or labelled near, the bait; the list need not be complete. For some assays here: No binding means not detected with the bait. Sequences can lack the tags named with a protein.

Experiment [1] concerns the target T1, His-tagged WaaP expressed in P. aeruginosa (P. aeruginosa) (UniProt Q9HUF7).
T1 sequence: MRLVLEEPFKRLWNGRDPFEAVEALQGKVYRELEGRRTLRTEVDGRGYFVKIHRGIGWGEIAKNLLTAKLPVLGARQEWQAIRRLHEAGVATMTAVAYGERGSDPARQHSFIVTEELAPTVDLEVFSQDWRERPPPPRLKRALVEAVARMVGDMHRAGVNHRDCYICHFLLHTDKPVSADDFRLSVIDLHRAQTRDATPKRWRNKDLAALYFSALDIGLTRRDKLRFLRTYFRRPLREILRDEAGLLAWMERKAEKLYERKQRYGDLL
Put plainly: affinity purification with mass spectrometry; WaaP-His pulled down from exponentially growing P. aeruginosa CDR0031 by IMAC (His-Trap, eluted with 500 mM imidazole); intact protein LC-MS of co-eluted proteins; overexpressed WaaP-His.

For experiment [2], the target named is T1, His-tagged WaaP expressed in P. aeruginosa (P. aeruginosa). Briefly: affinity purification with mass spectrometry; as a2, but from P. aeruginosa cells expressing WaaP-His at ~40-fold lower protein levels; AcpP confirmed by trypsin digest and MS/MS.

On to “Acp1 (P. aeruginosa (endogenous in CDR0031))”, for which the binding result in experiment [1] is listed as “no binding”.

As to “Acp3 (P. aeruginosa (endogenous in CDR0031))”, in experiment [1], the binding result is reported as “no binding”.

As for “myristyl-AcpP (C14:0) (from UniProt O54439 1-78)”, the binding entry in experiment [2] and in experiment [1] was “binds” each time.

Regarding “palmitoyl (C16:0)-AcpP (from UniProt O54439 1-78)”, the binding entry in experiment [1] is “binds”.
